Three molecules from paper PMC9869976 can be followed below.

By UniProt entry, the sequences of proteins in these tests, tags left out. Residues count along the entry.
UniProt P00751, residues 26-764: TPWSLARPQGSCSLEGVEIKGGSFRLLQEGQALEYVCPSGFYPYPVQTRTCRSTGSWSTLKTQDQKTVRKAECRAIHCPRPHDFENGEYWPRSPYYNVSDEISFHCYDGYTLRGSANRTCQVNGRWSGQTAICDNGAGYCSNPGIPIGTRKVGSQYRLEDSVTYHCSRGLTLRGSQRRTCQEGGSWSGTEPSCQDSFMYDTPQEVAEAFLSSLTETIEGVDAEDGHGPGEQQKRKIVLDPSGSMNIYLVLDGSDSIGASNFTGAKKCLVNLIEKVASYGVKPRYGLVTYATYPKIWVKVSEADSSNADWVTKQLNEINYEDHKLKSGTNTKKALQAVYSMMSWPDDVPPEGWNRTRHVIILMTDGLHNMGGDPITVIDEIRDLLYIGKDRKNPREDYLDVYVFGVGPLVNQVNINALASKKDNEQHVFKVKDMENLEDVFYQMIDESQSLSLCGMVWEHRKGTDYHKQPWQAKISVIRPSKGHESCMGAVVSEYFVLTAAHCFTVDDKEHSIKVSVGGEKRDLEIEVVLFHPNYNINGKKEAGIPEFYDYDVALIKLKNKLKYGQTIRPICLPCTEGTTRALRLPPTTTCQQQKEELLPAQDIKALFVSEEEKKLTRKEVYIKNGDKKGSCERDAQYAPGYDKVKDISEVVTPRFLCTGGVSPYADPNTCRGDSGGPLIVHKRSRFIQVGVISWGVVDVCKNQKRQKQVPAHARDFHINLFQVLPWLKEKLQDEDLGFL
UniProt P25963: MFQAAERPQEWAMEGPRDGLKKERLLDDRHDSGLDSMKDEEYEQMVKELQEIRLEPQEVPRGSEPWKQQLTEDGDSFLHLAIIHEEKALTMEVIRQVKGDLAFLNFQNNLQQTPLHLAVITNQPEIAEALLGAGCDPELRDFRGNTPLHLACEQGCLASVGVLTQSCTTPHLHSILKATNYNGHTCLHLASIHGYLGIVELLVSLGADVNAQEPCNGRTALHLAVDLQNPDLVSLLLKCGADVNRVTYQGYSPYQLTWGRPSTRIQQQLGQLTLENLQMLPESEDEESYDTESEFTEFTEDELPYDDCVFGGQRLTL
UniProt Q04206: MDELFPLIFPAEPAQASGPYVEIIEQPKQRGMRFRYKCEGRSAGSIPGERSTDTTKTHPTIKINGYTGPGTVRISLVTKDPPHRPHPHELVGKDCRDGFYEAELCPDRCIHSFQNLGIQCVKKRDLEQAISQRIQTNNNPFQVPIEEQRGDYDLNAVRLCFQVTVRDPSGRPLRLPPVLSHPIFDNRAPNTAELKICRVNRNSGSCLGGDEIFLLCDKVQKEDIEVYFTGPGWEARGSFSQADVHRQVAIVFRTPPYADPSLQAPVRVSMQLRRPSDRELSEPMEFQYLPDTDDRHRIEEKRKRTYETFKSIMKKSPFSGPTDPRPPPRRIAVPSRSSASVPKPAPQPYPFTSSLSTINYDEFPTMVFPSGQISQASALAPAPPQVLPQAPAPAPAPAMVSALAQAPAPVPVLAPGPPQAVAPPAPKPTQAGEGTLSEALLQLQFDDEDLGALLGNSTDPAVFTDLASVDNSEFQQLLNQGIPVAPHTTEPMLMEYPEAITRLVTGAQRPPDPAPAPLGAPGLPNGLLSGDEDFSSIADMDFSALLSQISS

Results are given in words; binding and its absence hold for the method and conditions named. Binding seen in cells or lysates may run through a third protein. Some entries that bind do so weakly or less than the wild type.

To fix the notation:
B1: inhibitor of NF-κB kinase subunit B (protein, UniProt O14920 1-756)
chain: MSWSPSLTTQTCGAWEMKERLGTGGFGNVIRWHNQETGEQIAIKQCRQELSPRNRERWCLEIQIMRRLTHPNVVAARDVPEGMQNLAPNDLPLLAMEYCQGGDLRKYLNQFENCCGLREGAILTLLSDIASALRYLHENRIIHRDLKPENIVLQQGEQRLIHKIIDLGYAKELDQGSLCTSFVGTLQYLAPELLEQQKYTVTVDYWSFGTLAFECITGFRPFLPNWQPVQWHSKVRQKSEVDIVVSEDLNGTVKFSSSLPYPNNLNSVLAERLEKWLQLMLMWHPRQRGTDPTYGPNGCFKALDDILNLKLVHILNMVTGTIHTYPVTEDESLQSLKARIQQDTGIPEEDQELLQEAGLALIPDKPATQCISDGKLNEGHTLDMDLVFLFDNSKITYETQISPRPQPESVSCILQEPKRNLAFFQLRKVWGQVWHSIQTLKEDCNRLQQGQRAAMMNLLRNNSCLSKMKNSMASMSQQLKAKLDFFKTSIQIDLEKYSEQTEFGITSDKLLLAWREMEQAVELCGRENEVKLLVERMMALQTDIVDLQRSPMGRKQGGTLDDLEEQARELYRRLREKPRDQRTEGDSQEMVRLLLQAIQSFEKKVRVIYTQLSKTVVCKQKALELLPKVEEVVSLMNEDEKTVVRLQEKRQKELWNLLKIACSKVRGPVSGSPDSMNASRLSQPGQLMSQPSTASNSLPEPAKKSEELVAEAHNLCTLLENAIQDTVREQDQSFTALDWSWLQTEEEEHSCLEQAS

This experiment deals with complement factor B (human (endogenous in HK-2)) (UniProt P00751). Kind of experiment: co-IP; HK-2 total protein lysate (500 μg protein in 500 μL) incubated with 5 μg anti-CFB (Quidel) or anti-IgG antibody on beads (Pierce Crosslink Magnetic Co-IP kit), overnight at 4°C; low-pH elution; immunoblot for NF-κB p65, IκBα and IKBKB.
IκBα (from UniProt P25963 1-317): the binding entry is “no binding”.

As for NF-κB p65 (from UniProt Q04206 1-551), the binding entry is “no binding”.

As to B1, the binding entry was “binds”.
